We go through one substance from publication PMC9491610.

Protein sequences, listed by entry. Tags and fused reporters are not part of them. Lines headed by an entry give the natural chain unless they say otherwise; changes in a name come on top.
UniProt P09733: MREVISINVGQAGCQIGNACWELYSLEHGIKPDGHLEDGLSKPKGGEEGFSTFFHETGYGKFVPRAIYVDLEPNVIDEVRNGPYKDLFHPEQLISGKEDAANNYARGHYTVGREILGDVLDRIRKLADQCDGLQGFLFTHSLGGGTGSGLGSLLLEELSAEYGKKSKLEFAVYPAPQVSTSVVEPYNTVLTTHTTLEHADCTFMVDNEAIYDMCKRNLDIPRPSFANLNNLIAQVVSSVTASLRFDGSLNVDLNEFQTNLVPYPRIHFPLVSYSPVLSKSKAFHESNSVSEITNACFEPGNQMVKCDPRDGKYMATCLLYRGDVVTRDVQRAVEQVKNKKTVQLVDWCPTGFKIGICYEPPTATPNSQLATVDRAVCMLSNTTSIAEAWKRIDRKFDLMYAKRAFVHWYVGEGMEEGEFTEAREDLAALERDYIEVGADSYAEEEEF

For test [1], the target named is T1, Stu2-K252,469Q-3xHA (S. cerevisiae) (UniProt P46675).
T1 sequence: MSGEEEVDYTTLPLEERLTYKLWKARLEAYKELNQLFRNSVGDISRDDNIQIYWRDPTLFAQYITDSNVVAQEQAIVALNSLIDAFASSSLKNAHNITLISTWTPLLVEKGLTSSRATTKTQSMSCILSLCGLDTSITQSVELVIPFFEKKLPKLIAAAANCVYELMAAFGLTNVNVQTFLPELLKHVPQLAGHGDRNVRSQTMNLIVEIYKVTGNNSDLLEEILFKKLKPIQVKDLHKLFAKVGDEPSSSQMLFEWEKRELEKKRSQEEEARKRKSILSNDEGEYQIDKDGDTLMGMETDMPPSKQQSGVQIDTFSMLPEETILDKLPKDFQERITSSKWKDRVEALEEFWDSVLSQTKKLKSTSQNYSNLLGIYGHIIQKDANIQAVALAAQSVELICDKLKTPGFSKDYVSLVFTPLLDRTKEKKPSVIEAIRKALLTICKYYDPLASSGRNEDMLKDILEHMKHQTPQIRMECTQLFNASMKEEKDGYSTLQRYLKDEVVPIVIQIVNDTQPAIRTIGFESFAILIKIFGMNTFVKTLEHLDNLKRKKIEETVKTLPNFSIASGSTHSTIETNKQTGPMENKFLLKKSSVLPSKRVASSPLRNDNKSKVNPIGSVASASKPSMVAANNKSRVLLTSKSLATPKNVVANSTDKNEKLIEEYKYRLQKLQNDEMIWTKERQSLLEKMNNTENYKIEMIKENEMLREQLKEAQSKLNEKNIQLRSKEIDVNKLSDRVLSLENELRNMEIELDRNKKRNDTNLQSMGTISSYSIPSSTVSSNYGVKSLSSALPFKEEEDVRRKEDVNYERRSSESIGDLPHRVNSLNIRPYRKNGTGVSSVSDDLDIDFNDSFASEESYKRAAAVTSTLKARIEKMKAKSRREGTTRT
Kind of test: co-IP; Stu2-HA precipitated with anti-HA magnetic beads from 67 mg cryo-milled yeast extract in PEM buffer (80 mM PIPES, 1 mM EGTA, 1 mM MgCl2, pH 6.8); precipitate blotted with anti α-tubulin (anti-Tub1) as surrogate for αβ-tubulin.

Test [2] deals with T2, Stu2-K469R-3xHA (S. cerevisiae) (UniProt P46675).
T2 sequence: T1 sequence with Q252K, Q469R
The description is as above.

Where a chain is given by its changes, count along the chain named. No constants are given. Whether binding was seen depends on the method and setting. Binding seen in cells or lysates may run through a third protein. Some results given as binding are weak or reduced against the parent protein; the word gives no strength.

For “αβ-tubulin heterodimer (from UniProt P09733 1-447; P02557 1-457) (complex)”, the binding entry in test [1] and in test [2] was “binds” in each case.
